This passage reports binding results from paper PMC4161973.

For this experiment, the target named is T1, GST-Kap123 (S. cerevisiae) (UniProt P40069).
T1 sequence: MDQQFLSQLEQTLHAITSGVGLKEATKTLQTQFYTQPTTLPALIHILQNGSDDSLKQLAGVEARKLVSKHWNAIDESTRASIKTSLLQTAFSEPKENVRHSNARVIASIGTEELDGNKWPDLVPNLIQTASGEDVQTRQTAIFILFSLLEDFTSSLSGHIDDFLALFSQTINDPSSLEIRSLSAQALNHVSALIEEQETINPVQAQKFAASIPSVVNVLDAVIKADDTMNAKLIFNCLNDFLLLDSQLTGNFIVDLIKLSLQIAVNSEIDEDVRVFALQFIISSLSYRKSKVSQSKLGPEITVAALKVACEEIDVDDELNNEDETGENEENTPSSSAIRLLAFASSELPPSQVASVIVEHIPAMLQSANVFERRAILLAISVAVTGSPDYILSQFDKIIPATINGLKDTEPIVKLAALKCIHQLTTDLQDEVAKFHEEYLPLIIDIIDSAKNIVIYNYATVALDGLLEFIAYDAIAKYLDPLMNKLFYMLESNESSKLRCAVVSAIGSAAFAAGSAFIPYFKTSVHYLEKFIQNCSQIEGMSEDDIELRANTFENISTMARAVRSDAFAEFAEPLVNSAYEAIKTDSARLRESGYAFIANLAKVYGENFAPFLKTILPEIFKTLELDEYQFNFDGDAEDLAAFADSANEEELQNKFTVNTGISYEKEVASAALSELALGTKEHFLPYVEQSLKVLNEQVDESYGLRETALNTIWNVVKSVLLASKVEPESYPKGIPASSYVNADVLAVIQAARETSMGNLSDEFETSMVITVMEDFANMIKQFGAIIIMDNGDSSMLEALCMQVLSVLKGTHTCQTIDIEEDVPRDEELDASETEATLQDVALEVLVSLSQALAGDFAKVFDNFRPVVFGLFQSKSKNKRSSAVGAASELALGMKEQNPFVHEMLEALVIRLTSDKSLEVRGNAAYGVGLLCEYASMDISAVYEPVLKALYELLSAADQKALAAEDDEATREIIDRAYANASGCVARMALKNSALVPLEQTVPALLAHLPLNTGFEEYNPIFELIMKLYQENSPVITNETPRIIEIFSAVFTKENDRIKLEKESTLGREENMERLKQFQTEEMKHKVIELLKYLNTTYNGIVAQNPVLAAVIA
Put plainly: pull-down; GST-importins immobilised on Glutathione Sepharose, incubated with purified 3.4 µM Tsr2 or 4 µM Tsr2:eS26 in PBSKMT with competing E. coli lysates for 1 hr at 4°C; Coomassie Blue staining or Western; both purified.

No constants are given. Whether binding was seen depends on the method and setting. Tags and fused reporters may be left off the sequences shown.

B1: Tsr2, purified recombinant (protein, UniProt Q06672 1-205)
chain: MSTQYIDETAFVQAEQGKTNLMFSDEKQQARFELGVSMVIYKWDALDVAVENSWGGPDSAEKRDWITGIVVDLFKNEKVVDAALIEETLLYAMIDEFETNVEDDSALPIAVEVINIYNDCFNLNYNKVEKLYLEWQEKQRTKKSKRVVHIEGDDDEDDEDVEDYDDEDEDEEMDEVVPDLVSSKPEPIVDEDGFELVQPKGRRKH
Consider B1, for which the binding entry is recorded as “no binding (tested: 3.4 µM Tsr2)”.
